Assay results from PMC11111765.
These are yes or no findings as the source states them, for the method shown. In cells and extracts the contact can be indirect. Some binding calls cover weakened binding; strength is not graded here. For some of these results: Where a sequence is shown, tags or fusion partners need not be part of it.

Experiments:
[1] = molecular target: T1, FLAG-TRIM65 (human) (UniProt Q6PJ69); test: co-IP; lysates of HEK293T cells expressing FLAG-TRIM65 and HA-BTG3; lysis buffer 0.5% Lubrol-Px, 50 mM KCl, 2 mM CaCl2, 20% glycerol, 50 mM Tris-HCl pH 7.4; protein-A or G beads, 4 °C
T1 sequence: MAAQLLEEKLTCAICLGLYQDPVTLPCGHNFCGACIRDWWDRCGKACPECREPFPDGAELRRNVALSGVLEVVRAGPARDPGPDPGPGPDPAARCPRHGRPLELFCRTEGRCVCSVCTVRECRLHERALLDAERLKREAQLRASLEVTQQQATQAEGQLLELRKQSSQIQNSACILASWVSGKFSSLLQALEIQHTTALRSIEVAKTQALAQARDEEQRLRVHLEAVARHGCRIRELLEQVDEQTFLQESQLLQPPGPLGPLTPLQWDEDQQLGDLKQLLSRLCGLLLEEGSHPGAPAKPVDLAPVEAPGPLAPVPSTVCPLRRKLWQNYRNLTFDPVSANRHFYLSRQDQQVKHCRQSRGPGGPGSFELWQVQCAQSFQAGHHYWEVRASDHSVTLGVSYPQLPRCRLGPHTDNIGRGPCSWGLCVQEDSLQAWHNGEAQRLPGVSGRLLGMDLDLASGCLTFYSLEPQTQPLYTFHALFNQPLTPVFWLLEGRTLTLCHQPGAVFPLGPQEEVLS

[2] = molecular target: T2, recombinant GST-TRIM65 protein (human) (UniProt Q6PJ69); test: pull-down; purified GST-TRIM65 or GST incubated overnight at 4 °C with lysates of HEK293T cells transfected with HA-BTG3 or its deletion mutants; Glutathione Sepharose 4B beads; immunoblotting; only the target purified
T2 sequence: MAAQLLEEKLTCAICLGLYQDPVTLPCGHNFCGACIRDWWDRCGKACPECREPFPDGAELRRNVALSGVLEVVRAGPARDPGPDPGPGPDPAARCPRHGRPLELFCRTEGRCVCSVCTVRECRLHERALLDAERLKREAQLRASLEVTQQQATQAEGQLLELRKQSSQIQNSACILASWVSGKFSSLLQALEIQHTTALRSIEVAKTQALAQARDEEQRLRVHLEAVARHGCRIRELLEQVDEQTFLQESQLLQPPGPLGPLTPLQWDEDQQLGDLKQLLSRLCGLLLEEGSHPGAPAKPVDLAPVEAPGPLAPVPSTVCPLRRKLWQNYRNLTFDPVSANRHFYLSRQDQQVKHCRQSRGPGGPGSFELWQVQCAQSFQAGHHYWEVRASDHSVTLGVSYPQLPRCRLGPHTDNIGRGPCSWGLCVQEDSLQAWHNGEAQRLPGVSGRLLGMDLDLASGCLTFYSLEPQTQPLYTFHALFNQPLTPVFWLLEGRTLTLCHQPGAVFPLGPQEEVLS

[3] = molecular target: T3, endogenous TRIM65 (human (endogenous in ACHN)) (UniProt Q6PJ69); test: co-IP; endogenous proteins in ACHN cells, with specific TRIM65 and BTG3 antibodies
T3 sequence: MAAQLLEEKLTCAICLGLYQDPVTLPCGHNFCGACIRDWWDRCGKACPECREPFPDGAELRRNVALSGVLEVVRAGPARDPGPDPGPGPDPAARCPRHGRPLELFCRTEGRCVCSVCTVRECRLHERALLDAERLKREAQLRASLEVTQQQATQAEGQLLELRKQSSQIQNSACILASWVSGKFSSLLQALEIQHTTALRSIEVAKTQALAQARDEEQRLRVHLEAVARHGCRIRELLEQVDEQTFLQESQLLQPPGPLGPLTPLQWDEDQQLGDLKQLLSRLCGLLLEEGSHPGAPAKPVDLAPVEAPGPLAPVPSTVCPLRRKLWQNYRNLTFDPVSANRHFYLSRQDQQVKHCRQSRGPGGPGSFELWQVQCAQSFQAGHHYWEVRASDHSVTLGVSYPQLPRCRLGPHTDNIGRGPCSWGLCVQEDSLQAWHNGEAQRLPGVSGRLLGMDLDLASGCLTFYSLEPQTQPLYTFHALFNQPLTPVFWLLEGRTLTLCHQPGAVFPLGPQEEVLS

[4] = molecular target: T4, BTG3 of the co-IP with GFP-TRIM65 and its deletion mutants (UniProt Q14201); test: co-IP; GFP-TRIM65 and its deletion mutants with BTG3, following MG132 treatment; cell line not stated
T4 sequence: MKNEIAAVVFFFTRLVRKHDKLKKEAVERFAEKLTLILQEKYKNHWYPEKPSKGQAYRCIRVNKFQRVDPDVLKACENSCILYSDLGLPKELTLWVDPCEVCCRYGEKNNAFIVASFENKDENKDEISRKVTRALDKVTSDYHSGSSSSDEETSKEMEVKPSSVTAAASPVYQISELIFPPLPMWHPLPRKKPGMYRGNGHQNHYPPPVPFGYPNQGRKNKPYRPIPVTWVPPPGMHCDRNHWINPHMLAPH

B1: HA-BTG3 (protein, UniProt Q14201 1-252)
chain: MKNEIAAVVFFFTRLVRKHDKLKKEAVERFAEKLTLILQEKYKNHWYPEKPSKGQAYRCIRVNKFQRVDPDVLKACENSCILYSDLGLPKELTLWVDPCEVCCRYGEKNNAFIVASFENKDENKDEISRKVTRALDKVTSDYHSGSSSSDEETSKEMEVKPSSVTAAASPVYQISELIFPPLPMWHPLPRKKPGMYRGNGHQNHYPPPVPFGYPNQGRKNKPYRPIPVTWVPPPGMHCDRNHWINPHMLAPH
Question: Which results are given for B1?
Answer: binding [1]: binds; binding [2]: binds

B2: endogenous BTG3 (protein, UniProt Q14201 1-252)
chain: MKNEIAAVVFFFTRLVRKHDKLKKEAVERFAEKLTLILQEKYKNHWYPEKPSKGQAYRCIRVNKFQRVDPDVLKACENSCILYSDLGLPKELTLWVDPCEVCCRYGEKNNAFIVASFENKDENKDEISRKVTRALDKVTSDYHSGSSSSDEETSKEMEVKPSSVTAAASPVYQISELIFPPLPMWHPLPRKKPGMYRGNGHQNHYPPPVPFGYPNQGRKNKPYRPIPVTWVPPPGMHCDRNHWINPHMLAPH
Question: Which binding [3] does the source give for B2 here?
Answer: binds

B3: GFP-TRIM65 (full-length) (protein, UniProt Q6PJ69 1-517)
chain: MAAQLLEEKLTCAICLGLYQDPVTLPCGHNFCGACIRDWWDRCGKACPECREPFPDGAELRRNVALSGVLEVVRAGPARDPGPDPGPGPDPAARCPRHGRPLELFCRTEGRCVCSVCTVRECRLHERALLDAERLKREAQLRASLEVTQQQATQAEGQLLELRKQSSQIQNSACILASWVSGKFSSLLQALEIQHTTALRSIEVAKTQALAQARDEEQRLRVHLEAVARHGCRIRELLEQVDEQTFLQESQLLQPPGPLGPLTPLQWDEDQQLGDLKQLLSRLCGLLLEEGSHPGAPAKPVDLAPVEAPGPLAPVPSTVCPLRRKLWQNYRNLTFDPVSANRHFYLSRQDQQVKHCRQSRGPGGPGSFELWQVQCAQSFQAGHHYWEVRASDHSVTLGVSYPQLPRCRLGPHTDNIGRGPCSWGLCVQEDSLQAWHNGEAQRLPGVSGRLLGMDLDLASGCLTFYSLEPQTQPLYTFHALFNQPLTPVFWLLEGRTLTLCHQPGAVFPLGPQEEVLS
Question: B3 was tested. Which binding [4] did it give?
Answer: binds
